The results are deposited in PubChem (AID504749; NCATS, 2011).

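A panel of P. falciparum strains inside erythrocytes is exposed to compounds for three days, then a DNA-binding dye reports the amount of parasite DNA.
Each compound was titrated across a series from about 0.000037 to 29 µM.
The number is the fitted AC50, the concentration giving a half-maximal change in signal; a lower value means higher potency, whether the curve shows a decrease or an increase.
Calls follow the curve class and fit quality: every row here is inconclusive, covering signal-raising curves and weak, poorly fitted, partial or highest-dose-only inhibition curves.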

Values are in µM.
Every entry below has the call inconclusive.
These entries are mostly ones the record files as inconclusive; other results of the assay are not listed here.
Potencies fitted to partial, single-point or poorly fitting curves are rough.
Some entries filed as inconclusive have a full curve.
The first word of each remark tells which way the curve ran; it can be opposite to the aim of the assay.

SMILES,setting,Potency (µM),curve as filed
CCOC(=O)c1ccc(OC(=O)CCCCCN=C(N)N)cc1,DIV14,8.087,"inhibitor, single point"
CCOC(=O)c1ccc(OC(=O)CCCCCN=C(N)N)cc1,PAD,3.548,"inhibitor, partial curve"
CCOC(=O)c1ccc(OC(=O)CCCCCN=C(N)N)cc1,CP191,4.467,"inhibitor, single point"
CCOC(=O)c1ccc(OC(=O)CCCCCN=C(N)N)cc1,CP335,8.087,"inhibitor, single point"
CCOC(=O)c1ccc(OC(=O)CCCCCN=C(N)N)cc1,CP265,8.912,"inhibitor, single point"
CCOC(=O)c1ccc(OC(=O)CCCCCN=C(N)N)cc1,TAB165,10,"inhibitor, single point"
CCOC(=O)c1ccc(OC(=O)CCCCCN=C(N)N)cc1,PC15,7.08,"inhibitor, single point"
CCOC(=O)c1ccc(OC(=O)CCCCCN=C(N)N)cc1,PC26,4.053,"inhibitor, partial curve, poor fit"
CCOC(=O)c1ccc(OC(=O)CCCCCN=C(N)N)cc1,N140,10,"inhibitor, single point"
CCOC(=O)c1ccc(OC(=O)CCCCCN=C(N)N)cc1,GB4,5.726,"inhibitor, single point"
CCOC(=O)c1ccc(OC(=O)CCCCCN=C(N)N)cc1,TAB113,10,"inhibitor, single point"
CCOC(=O)c1ccc(OC(=O)CCCCCN=C(N)N)cc1,ATS189,4.467,"inhibitor, single point"
CCOC(=O)c1ccc(OC(=O)CCCCCN=C(N)N)cc1,CP260,10,"inhibitor, single point"
CCOC(=O)c1ccc(OC(=O)CCCCCN=C(N)N)cc1,W2,4.548,"inhibitor, partial curve, poor fit"
CCOC(=O)c1ccc(OC(=O)CCCCCN=C(N)N)cc1,P93_24,10,"inhibitor, single point"
CCOC(=O)c1ccc(OC(=O)CCCCCN=C(N)N)cc1,TAB109,10,"inhibitor, single point"
CCOC(=O)c1ccc(OC(=O)CCCCCN=C(N)N)cc1,ECU,10,"inhibitor, single point"
CC(=O)[C@]1(O)CCC2C3C=C(Cl)C4=CC(=O)C5CC5[C@@]4(C)C3CC[C@]21C (stereo partly shown),CP247,17.78,"activator, single point"
CC(=O)[C@]1(O)CCC2C3C=C(Cl)C4=CC(=O)C5CC5[C@@]4(C)C3CC[C@]21C (stereo partly shown),7G8,17.78,"inhibitor, single point"
F/C(COc1ccc2c(c1)[nH]c1ccccc12)=C1/CN2CCC1CC2,CP256,3.981,"inhibitor, partial curve, poor fit"
F/C(COc1ccc2c(c1)[nH]c1ccccc12)=C1/CN2CCC1CC2,ECU,3.981,"inhibitor, partial curve, poor fit"
F/C(COc1ccc2c(c1)[nH]c1ccccc12)=C1/CN2CCC1CC2,PC15,8.912,"inhibitor, partial curve, poor fit"
F/C(COc1ccc2c(c1)[nH]c1ccccc12)=C1/CN2CCC1CC2,CP269,7.569,"inhibitor, partial curve"
F/C(COc1ccc2c(c1)[nH]c1ccccc12)=C1/CN2CCC1CC2,CP247,1.259,"inhibitor, full curve"
F/C(COc1ccc2c(c1)[nH]c1ccccc12)=C1/CN2CCC1CC2,CP315,5.358,"inhibitor, partial curve, poor fit"
F/C(COc1ccc2c(c1)[nH]c1ccccc12)=C1/CN2CCC1CC2,CP268,10.69,"inhibitor, partial curve"
F/C(COc1ccc2c(c1)[nH]c1ccccc12)=C1/CN2CCC1CC2,JCK,11.22,"inhibitor, single point"
F/C(COc1ccc2c(c1)[nH]c1ccccc12)=C1/CN2CCC1CC2,CP185,6.31,"inhibitor, partial curve"
F/C(COc1ccc2c(c1)[nH]c1ccccc12)=C1/CN2CCC1CC2,CP252,11.22,"inhibitor, partial curve"
F/C(COc1ccc2c(c1)[nH]c1ccccc12)=C1/CN2CCC1CC2,C2A,7.08,"inhibitor, partial curve"
F/C(COc1ccc2c(c1)[nH]c1ccccc12)=C1/CN2CCC1CC2,GB4,8.492,"inhibitor, partial curve, poor fit"
F/C(COc1ccc2c(c1)[nH]c1ccccc12)=C1/CN2CCC1CC2,P94_40,7.08,"inhibitor, partial curve, poor fit"
F/C(COc1ccc2c(c1)[nH]c1ccccc12)=C1/CN2CCC1CC2,CP194,16.94,"inhibitor, single point"
F/C(COc1ccc2c(c1)[nH]c1ccccc12)=C1/CN2CCC1CC2,CP192,16.94,"inhibitor, partial curve, poor fit"
F/C(COc1ccc2c(c1)[nH]c1ccccc12)=C1/CN2CCC1CC2,CP266,0.5358,"inhibitor, full curve, poor fit"
F/C(COc1ccc2c(c1)[nH]c1ccccc12)=C1/CN2CCC1CC2,PC26,12,"inhibitor, partial curve, poor fit"
F/C(COc1ccc2c(c1)[nH]c1ccccc12)=C1/CN2CCC1CC2,CP203,16.94,"inhibitor, single point"
F/C(COc1ccc2c(c1)[nH]c1ccccc12)=C1/CN2CCC1CC2,ATS189,7.943,"inhibitor, partial curve"
F/C(COc1ccc2c(c1)[nH]c1ccccc12)=C1/CN2CCC1CC2,HB3,15.85,"inhibitor, single point"
F/C(COc1ccc2c(c1)[nH]c1ccccc12)=C1/CN2CCC1CC2,CP297,13.46,"inhibitor, partial curve"
F/C(COc1ccc2c(c1)[nH]c1ccccc12)=C1/CN2CCC1CC2,CP211,9.528,"inhibitor, partial curve, poor fit"
F/C(COc1ccc2c(c1)[nH]c1ccccc12)=C1/CN2CCC1CC2,CP217,5.623,"inhibitor, partial curve"

For reference, 5 entries once more:

| SMILES | setting | Potency (µM) | curve as filed |
|---|---|---|---|
| `CCOC(=O)c1ccc(OC(=O)CCCCCN=C(N)N)cc1` | N140 | 10 | inhibitor, single point |
| `F/C(COc1ccc2c(c1)[nH]c1ccccc12)=C1/CN2CCC1CC2` | CP269 | 7.569 | inhibitor, partial curve |
| `F/C(COc1ccc2c(c1)[nH]c1ccccc12)=C1/CN2CCC1CC2` | CP194 | 16.94 | inhibitor, single point |
| `CCOC(=O)c1ccc(OC(=O)CCCCCN=C(N)N)cc1` | DIV14 | 8.087 | inhibitor, single point |
| `F/C(COc1ccc2c(c1)[nH]c1ccccc12)=C1/CN2CCC1CC2` | CP192 | 16.94 | inhibitor, partial curve, poor fit |